Reference: PubChem BioAssay AID1259254 (NCATS, 2017)
This is one part, drawn at random, of about 59,000 reagents. About 1,550 of all reagents (2.6%) count as active. 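G2 share is only a proxy for re-replication; each gene was hit by three separate siRNAs, and active genes were retested.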 The raw values are shown without normalisation. Entries without a mark were called inactive. The numbers tell different reagents against one gene apart. Not given: the amount of reagent.

Assay: 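Gene knock-downs that lead to re-replication, shown by excess G2 DNA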 (primary screen)
System: human HCT116 colorectal cancer cells
Knock-down reagent: single siRNA against human genes
Timing: 3 days
Measurement: 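Imaged Hoechst DNA stain sorts each cell into a cycle phase by DNA amount; per plate, G2 fraction set to 0% for non-targeting and 100% for GMNN siRNA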
Direction: G2 robust z-score and G2 cells, % of GMNN control: higher = more G2 cells, more excess DNA replication; raw share of cells in G2: higher = larger share of cells with G2 DNA content
Call rule: 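Active siRNAs have a G2 robust z of 5 or more median absolute deviations over the median, which in these data means about 38% or higher of GMNN control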

gene knocked down | reagent | G2 robust z-score | G2 cells, % of GMNN control | raw share of cells in G2 (%)
DNAJC30 | 1 | -0.0757 | 2.43 | 3.65
DNAJC30 | 2 | 0.293 | 5.03 | 8.18
DNAJC30 | 3 | -0.312 | 0.772 | 3.88
LOC390846 | 1 | 0.386 | 5.69 | 5.88
LOC390846 | 2 | 0.103 | 3.69 | 4.98
LOC390846 | 3 | -0.358 | 0.445 | 4.98
SLC37A2 | 1 | 3.04 | 24.4 | 17.6
SLC37A2 | 2 | -0.618 | -1.38 | 4.12
SLC37A2 | 3 | 0.338 | 5.35 | 6.66
RDH10 | 1 | -1.17 | -5.3 | 3.43
RDH10 | 2 | 3.07 | 24.6 | 13.7
RDH10 | 3 | -1.31 | -6.26 | 2.07
FCSK | 1 | 1.47 | 13.3 | 9.73
FCSK | 2 | -0.477 | -0.386 | 5.05
FCSK | 3 | 0.972 | 9.8 | 6.82
CBR4 | 1 | 0.523 | 6.64 | 7.25
CBR4 | 2 | -0.0713 | 2.47 | 5.09
CBR4 | 3 | 2.11 | 17.8 | 12.8
DHX33 | 1 | -0.0632 | 2.52 | 7.54
DHX33 | 2 | 3.11 | 24.9 | 13.4
DHX33 | 3 | -0.666 | -1.72 | 3.62
GRIK3 | 1 | 1.92 | 16.5 | 11.3
GRIK3 | 2 | -0.845 | -2.97 | 3.78
GRIK3 | 3 | 1.1 | 10.7 | 8.55
JOSD1 | 1 | 0.198 | 4.36 | 7.3
JOSD1 | 2 | 0.0897 | 3.6 | 5.45
JOSD1 | 3 | -0.389 | 0.229 | 3.49
CCNQ | 1 | -0.0847 | 2.37 | 5.09
CCNQ | 2 | 3.14 | 25.1 | 10.9
CCNQ | 3 | -1.05 | -4.44 | 1.52
MPV17L2 | 1 | 5.11 (active) | 39 | 17.1
MPV17L2 | 2 | -1.35 | -6.56 | 1.51
MPV17L2 | 3 | -0.255 | 1.18 | 2.76
ARMH3 | 1 | -0.205 | 1.53 | 5.24
ARMH3 | 2 | 0.818 | 8.72 | 8.52
ARMH3 | 3 | 0.348 | 5.41 | 4.13
TENT2 | 1 | -0.554 | -0.928 | 3.27
TENT2 | 2 | -0.217 | 1.44 | 3.44
TENT2 | 3 | -0.592 | -1.2 | 2.38
KANSL1 | 1 | -1.04 | -4.36 | 1.94
KANSL1 | 2 | 0.0719 | 3.47 | 4.91
KANSL1 | 3 | 0.164 | 4.12 | 4.64
ABCA7 | 1 | -0.206 | 1.52 | 7.08
ABCA7 | 2 | 1.37 | 12.6 | 7.93
ABCA7 | 3 | -0.0833 | 2.38 | 6.73
OSBPL6 | 1 | -0.631 | -1.47 | 3.5
OSBPL6 | 2 | 0.425 | 5.95 | 5.1
OSBPL6 | 3 | 0.000115 | 2.97 | 2.69
FGFR3 | 1 | -0.31 | 0.784 | 5.87
FGFR3 | 2 | -0.95 | -3.72 | 4.16
FGFR3 | 3 | -0.36 | 0.434 | 4.18
ABCB5 | 1 | 0.48 | 6.35 | 7.44
ABCB5 | 2 | -1.35 | -6.56 | 3.07
ABCB5 | 3 | -0.745 | -2.27 | 3.46
CHIT1 | 1 | -0.357 | 0.452 | 4.25
CHIT1 | 2 | 0.446 | 6.1 | 7.22
CHIT1 | 3 | 2.87 | 23.2 | 13.2
FABP2 | 1 | -0.573 | -1.06 | 4.86
FABP2 | 2 | 0.211 | 4.45 | 5.24
FABP2 | 3 | 0.0775 | 3.51 | 6.51
GSK3B | 1 | 1.66 | 14.7 | 10.4
GSK3B | 2 | -1.19 | -5.43 | 3.58
GSK3B | 3 | 1.04 | 10.3 | 7.65
KLK7 | 1 | -1.28 | -6.06 | 3.44
KLK7 | 2 | -0.683 | -1.84 | 4.26
KLK7 | 3 | -0.275 | 1.03 | 4.29
HTRA2 | 1 | 0.595 | 7.16 | 8.05
HTRA2 | 2 | -1.19 | -5.44 | 2.98
HTRA2 | 3 | 0.515 | 6.59 | 6.37

A stretch from the list above, as a working copy:
gene knocked down | reagent | G2 robust z-score | G2 cells, % of GMNN control | raw share of cells in G2 (%)
ABCB5 | 3 | -0.745 | -2.27 | 3.46
CHIT1 | 1 | -0.357 | 0.452 | 4.25
CHIT1 | 2 | 0.446 | 6.1 | 7.22
CHIT1 | 3 | 2.87 | 23.2 | 13.2
FABP2 | 1 | -0.573 | -1.06 | 4.86
FABP2 | 2 | 0.211 | 4.45 | 5.24
